Measurements reported in PMC12405659.
Results are given in words; binding and its absence hold for the method and conditions named. In cells and extracts the contact can be indirect. A yes stands for co-enrichment or nearness to the bait. Other partners may have been found.

Protein sequences, listed by entry. Tags and fused reporters are not part of them. Residues count along the entry.
UniProt Q9Y5F8, residues 31-929: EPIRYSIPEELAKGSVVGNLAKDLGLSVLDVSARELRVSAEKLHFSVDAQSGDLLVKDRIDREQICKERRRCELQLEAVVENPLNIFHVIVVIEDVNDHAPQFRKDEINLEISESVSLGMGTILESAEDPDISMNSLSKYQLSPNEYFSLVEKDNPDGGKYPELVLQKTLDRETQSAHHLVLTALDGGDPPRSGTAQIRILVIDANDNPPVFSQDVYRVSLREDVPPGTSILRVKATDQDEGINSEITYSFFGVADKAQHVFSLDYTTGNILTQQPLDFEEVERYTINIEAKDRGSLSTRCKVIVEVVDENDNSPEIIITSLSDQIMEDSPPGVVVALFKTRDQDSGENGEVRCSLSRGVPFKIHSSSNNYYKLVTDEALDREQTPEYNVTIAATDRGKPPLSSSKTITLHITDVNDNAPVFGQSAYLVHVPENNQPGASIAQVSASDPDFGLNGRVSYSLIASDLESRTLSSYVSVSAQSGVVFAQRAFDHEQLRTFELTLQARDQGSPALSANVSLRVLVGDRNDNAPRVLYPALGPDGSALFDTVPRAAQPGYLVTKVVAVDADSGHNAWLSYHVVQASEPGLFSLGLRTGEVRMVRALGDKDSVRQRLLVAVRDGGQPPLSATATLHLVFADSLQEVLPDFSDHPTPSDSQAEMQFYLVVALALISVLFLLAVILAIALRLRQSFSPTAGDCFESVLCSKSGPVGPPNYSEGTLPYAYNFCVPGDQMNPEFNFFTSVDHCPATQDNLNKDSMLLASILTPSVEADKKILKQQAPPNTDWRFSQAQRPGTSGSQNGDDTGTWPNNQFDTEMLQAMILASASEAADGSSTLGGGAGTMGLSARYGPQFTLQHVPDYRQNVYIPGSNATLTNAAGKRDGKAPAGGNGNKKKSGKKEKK
UniProt P13010: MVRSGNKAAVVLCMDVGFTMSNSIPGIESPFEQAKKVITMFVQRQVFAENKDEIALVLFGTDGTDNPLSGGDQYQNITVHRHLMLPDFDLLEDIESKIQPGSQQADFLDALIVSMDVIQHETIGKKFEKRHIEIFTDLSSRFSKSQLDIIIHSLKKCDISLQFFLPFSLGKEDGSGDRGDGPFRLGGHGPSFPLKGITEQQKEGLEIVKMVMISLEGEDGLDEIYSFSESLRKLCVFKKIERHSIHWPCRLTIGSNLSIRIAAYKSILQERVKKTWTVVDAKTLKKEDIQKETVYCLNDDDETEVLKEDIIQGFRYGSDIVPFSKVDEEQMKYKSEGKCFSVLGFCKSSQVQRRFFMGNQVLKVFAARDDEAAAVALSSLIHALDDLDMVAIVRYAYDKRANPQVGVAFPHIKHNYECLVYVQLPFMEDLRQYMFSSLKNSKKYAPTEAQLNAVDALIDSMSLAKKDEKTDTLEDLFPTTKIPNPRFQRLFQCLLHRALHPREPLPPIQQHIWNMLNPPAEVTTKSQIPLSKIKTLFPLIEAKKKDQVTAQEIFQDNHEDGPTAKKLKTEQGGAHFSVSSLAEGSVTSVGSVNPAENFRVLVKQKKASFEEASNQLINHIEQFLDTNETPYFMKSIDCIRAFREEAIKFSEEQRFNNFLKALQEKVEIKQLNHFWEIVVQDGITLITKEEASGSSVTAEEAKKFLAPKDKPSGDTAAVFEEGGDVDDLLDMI

Target: PCDHGB7-flag (UniProt Q9Y5F8)
Test: affinity purification with mass spectrometry; co-IP followed by MS (LC-MS/MS, timsTOF Pro 2) to identify the proteins that interacted with PCDHGB7 in TNBC cells

binding: binds
Substance: x‐ray repair cross‐complementary 5 (XRCC5) (from UniProt P13010 1-732)
